Measured values as given in patent US20110250213A1 (JN BIOSCIENCES, published 2011).
These are yes or no findings as the source states them, for the method shown. Some entries that bind do so weakly or less than the wild type. Blank lines part the entries; values can stand above or below the binder they belong to.

Target: T1, cynomolgus CD122 (cynomolgus) (UniProt Q38J85)
T1 sequence (looked up): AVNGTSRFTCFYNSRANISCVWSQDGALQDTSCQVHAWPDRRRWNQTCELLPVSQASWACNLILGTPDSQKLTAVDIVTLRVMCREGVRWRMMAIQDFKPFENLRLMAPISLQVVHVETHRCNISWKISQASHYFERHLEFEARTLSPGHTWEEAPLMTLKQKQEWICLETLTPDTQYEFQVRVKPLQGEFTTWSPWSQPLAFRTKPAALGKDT
Assay: assay not specified

binding: binds
B1: ABC2 (antibody, mouse IgG1, V domains shown)
VH: EVKLVESGGGLVQPGGSLRLSCATSGFTFSDFYMEWVRQPPGKRLEWIAASRNKANDYTTEYSASVKGRFIVSRDTSQSILYLQMNALRAEDTAIYYCARSYYRYDGMDYWGQGTSVTVSS
VL: QVVLTQSPVIMSASPGEKVTMTCSAISSVSYMYWYQQKPGSSPRLLIYDTSNLVSGVPVRFSGSGSGTSYSLTISRMEAEDAATYYCQQWNTYPYTFGGGTKLEIK
notes: Mouse IgG1/kappa purified from hybridoma; also called mouse anti-human CD122 monoclonal antibody ABC2

binding: binds
B2: ABC101 (antibody, mouse IgG2b, V domains shown)
VH: DVQLQESGPGLVKPSQTVSLTCTVTGYSITNDNHWWNWIRQVSGSKLEWMGYIDSSGSSDNNPSLKSQISITRDTSKNQLFLQLNSVTIEDIGTYYCARGGGRDYYGMDYWGQGTSVTVSS
VL: DIVLTQSPASLAVSLGQRATISCRASQSVSTSSYSYVHWYQQKPGQPPKLLIKYASNLESGVPARFSGSGSGTDFTLNIHPVEEEDTATYYCQHSWDIPFTFGGGTKLEIK
notes: Mouse IgG2b/kappa purified from hybridoma; also called mouse anti-human CD122 monoclonal antibody ABC101
